Measured values reported in patent US8889408B2, “Factor taking part in transcription control” (Sony Corporation, priority 2002, dated 2014).
These are yes or no findings as the source states them, for the method shown. In cells and extracts the contact can be indirect. Some binding calls cover weakened binding; strength is not graded here. Sequences can lack the tags named with a protein.

The chains behind the UniProt entries cited, without tags or fusion partners.
UniProt O15379: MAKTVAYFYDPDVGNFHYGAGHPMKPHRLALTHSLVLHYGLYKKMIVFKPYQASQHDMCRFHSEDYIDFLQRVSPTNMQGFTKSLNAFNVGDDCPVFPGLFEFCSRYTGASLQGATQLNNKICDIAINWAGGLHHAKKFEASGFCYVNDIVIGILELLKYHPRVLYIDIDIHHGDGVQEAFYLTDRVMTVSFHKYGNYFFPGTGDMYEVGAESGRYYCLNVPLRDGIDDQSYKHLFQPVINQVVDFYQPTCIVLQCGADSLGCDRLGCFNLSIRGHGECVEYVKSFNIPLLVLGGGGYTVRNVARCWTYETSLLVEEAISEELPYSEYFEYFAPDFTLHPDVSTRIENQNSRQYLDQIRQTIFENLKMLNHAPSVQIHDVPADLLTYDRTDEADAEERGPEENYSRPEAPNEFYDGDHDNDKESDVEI
UniProt P56524: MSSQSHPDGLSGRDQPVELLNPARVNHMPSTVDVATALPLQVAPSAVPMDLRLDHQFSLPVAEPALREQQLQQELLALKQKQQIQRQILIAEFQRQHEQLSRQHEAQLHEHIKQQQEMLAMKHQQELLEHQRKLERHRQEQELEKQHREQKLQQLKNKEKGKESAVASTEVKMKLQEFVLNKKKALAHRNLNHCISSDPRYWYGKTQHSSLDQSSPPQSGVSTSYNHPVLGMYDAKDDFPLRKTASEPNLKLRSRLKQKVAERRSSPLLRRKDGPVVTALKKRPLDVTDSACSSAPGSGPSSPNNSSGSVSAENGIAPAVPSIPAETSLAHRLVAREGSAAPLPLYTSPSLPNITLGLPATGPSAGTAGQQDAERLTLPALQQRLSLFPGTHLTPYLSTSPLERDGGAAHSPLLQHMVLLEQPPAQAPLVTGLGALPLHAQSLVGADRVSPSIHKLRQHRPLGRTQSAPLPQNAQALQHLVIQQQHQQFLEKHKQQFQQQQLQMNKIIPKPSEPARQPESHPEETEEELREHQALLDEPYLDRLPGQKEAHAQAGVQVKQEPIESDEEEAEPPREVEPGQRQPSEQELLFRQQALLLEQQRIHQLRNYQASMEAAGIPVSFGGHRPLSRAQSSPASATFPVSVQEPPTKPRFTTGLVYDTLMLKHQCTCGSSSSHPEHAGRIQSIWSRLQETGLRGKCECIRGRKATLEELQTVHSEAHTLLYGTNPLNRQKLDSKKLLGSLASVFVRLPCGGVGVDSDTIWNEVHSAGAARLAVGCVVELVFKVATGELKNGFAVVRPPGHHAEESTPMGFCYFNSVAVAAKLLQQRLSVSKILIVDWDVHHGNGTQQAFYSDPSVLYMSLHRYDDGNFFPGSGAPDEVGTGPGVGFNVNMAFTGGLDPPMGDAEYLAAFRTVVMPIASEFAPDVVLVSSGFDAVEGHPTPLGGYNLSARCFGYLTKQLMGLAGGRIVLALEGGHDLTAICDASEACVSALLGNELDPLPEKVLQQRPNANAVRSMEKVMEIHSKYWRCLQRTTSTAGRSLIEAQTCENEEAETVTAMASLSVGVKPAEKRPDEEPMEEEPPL
UniProt Q9UBN7: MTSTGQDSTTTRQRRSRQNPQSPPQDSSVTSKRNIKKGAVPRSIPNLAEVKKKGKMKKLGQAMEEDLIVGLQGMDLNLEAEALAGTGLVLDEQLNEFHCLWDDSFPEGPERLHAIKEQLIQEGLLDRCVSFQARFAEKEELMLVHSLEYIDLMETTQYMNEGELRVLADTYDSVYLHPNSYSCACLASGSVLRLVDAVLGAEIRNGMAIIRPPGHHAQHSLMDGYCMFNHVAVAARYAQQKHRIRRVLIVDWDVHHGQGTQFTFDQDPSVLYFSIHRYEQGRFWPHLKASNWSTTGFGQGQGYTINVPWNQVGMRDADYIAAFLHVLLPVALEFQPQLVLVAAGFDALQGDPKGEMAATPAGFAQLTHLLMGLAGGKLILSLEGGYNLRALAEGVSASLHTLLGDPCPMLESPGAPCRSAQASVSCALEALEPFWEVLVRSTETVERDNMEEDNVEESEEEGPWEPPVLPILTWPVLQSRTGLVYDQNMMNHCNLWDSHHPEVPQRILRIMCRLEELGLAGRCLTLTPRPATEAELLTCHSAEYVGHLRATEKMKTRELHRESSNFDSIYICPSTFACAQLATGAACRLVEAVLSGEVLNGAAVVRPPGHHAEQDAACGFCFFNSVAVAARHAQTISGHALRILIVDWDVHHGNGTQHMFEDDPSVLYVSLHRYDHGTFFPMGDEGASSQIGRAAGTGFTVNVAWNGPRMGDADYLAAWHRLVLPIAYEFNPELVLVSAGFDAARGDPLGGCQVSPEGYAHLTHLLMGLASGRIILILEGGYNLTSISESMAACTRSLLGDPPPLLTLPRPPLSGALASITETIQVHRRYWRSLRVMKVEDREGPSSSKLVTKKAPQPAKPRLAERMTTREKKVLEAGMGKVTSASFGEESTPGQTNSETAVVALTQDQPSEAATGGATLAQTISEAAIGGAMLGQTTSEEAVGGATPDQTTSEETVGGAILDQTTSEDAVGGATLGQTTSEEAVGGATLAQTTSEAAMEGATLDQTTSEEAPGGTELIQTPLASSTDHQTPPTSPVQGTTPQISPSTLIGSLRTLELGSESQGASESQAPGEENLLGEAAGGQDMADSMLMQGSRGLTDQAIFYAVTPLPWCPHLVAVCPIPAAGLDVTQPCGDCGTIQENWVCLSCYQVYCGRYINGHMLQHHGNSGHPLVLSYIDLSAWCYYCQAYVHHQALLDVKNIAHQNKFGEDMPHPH
UniProt Q13547: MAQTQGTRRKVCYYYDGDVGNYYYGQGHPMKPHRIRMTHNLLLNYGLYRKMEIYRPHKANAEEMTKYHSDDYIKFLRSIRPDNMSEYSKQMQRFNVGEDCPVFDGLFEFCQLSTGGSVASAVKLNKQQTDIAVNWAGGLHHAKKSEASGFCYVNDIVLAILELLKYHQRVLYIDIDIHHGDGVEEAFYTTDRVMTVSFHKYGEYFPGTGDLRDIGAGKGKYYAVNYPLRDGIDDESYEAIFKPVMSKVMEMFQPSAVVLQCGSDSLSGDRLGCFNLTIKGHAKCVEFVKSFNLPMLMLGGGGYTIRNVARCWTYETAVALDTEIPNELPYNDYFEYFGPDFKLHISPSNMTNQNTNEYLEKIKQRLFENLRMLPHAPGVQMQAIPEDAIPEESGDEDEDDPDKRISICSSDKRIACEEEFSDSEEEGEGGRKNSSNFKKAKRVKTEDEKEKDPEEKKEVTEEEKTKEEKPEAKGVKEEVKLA

Key:
Flag-HDAC3 [1] = biological target: Flag-HDAC3 (UniProt O15379); assay: co-immunoprecipitation from 293 cells, anti-Flag IP, anti-GFP immunoblot (lane 3)
Flag-HDAC3 [2] = biological target: Flag-HDAC3 (UniProt O15379); assay: co-immunoprecipitation from 293 cells, anti-FLAG IP (figure legend, lane 3)
Flag-HDAC4 [3] = biological target: Flag-HDAC4 (UniProt P56524); assay: co-immunoprecipitation from 293 cells, anti-FLAG IP (figure legend, lane 4)
Flag-HDAC6 [4] = biological target: Flag-HDAC6 (UniProt Q9UBN7); assay: co-immunoprecipitation from 293 cells, anti-Flag IP, anti-GFP immunoblot (lane 5)
Flag-HDAC6 [5] = biological target: Flag-HDAC6 (UniProt Q9UBN7); assay: co-immunoprecipitation from 293 cells, anti-FLAG IP (figure legend, lane 5)
Flag-HDAC1 [6] = biological target: Flag-HDAC1 (UniProt Q13547); assay: co-immunoprecipitation from 293 cells, anti-Flag IP, anti-GFP immunoblot (lane 1)
Flag-Skip fused protein [7] = biological target: T1, Flag-Skip fused protein (UniProt Q13573); assay: co-immunoprecipitation from HEK293 cells, anti-Flag IP, anti-GFP immunoblot
T1 sequence (looked up): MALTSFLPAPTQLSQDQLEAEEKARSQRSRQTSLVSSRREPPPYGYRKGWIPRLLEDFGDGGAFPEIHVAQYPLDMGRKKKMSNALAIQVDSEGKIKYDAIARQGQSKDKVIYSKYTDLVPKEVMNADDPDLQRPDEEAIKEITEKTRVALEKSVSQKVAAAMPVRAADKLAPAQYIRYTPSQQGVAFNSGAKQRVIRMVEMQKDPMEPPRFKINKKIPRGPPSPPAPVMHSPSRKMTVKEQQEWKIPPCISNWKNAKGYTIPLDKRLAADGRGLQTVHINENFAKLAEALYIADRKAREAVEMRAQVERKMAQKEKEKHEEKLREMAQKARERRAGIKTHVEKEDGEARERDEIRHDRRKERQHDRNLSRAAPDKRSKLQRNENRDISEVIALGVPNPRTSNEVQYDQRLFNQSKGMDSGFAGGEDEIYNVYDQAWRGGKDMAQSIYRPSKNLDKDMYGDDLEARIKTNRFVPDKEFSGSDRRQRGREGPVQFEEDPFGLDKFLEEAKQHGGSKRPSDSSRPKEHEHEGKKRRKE

Flag-HDAC1 [8] = biological target: Flag-HDAC1 (UniProt Q13547); assay: co-immunoprecipitation from 293 cells, anti-FLAG IP (figure legend, lane 1)
Flag-HDAC4 [9] = biological target: Flag-HDAC4 (UniProt P56524); assay: co-immunoprecipitation from 293 cells, anti-Flag IP, anti-GFP immunoblot (lane 4)
[10] = biological target: in vitro translated HDAC3 (UniProt O15379); assay: GST pulldown (figure legend)
[11] = biological target: HDAC1 (GST pulldown, data not shown) (UniProt Q13547); assay: GST pulldown (data not shown)
[12] = biological target: in vitro translated HDAC3 (UniProt O15379); assay: GST pulldown of ^35S-labelled in vitro translated HDAC3, autoradiography
Flag-Skip fused protein [13] = biological target: T1, Flag-Skip fused protein; assay: co-immunoprecipitation from 293 cells, anti-Flag IP, anti-HDART immunoblot
Flag-Skip fused protein [14] = biological target: T1, Flag-Skip fused protein; assay: co-immunoprecipitation from 293 cells, anti-Flag IP, anti-GFP immunoblot

Measured: binding

B1: GFP-HDART fused protein (protein, not shown: large carriers; small tags and cut ends)
chain: MVVMARLSRPERPDLVFEEEDLPYEEEIMRNQFSVKCWLRYIEFKQGAPKPRLNQLYERALKLLPCSYKLWYRYLKARRAQVKHRCVTDPAYEDVNNCHERAFVFMHKMPRLWLDYCQFLMDQGRVTHTRRTFDRALRALPITQHSRIWPLYLRFLRSHPLPETAVRGYRRFLKLSPESAEEYIEYLKSSDRLDEAAQRLATVVNDERFVSKAGKSNYQLWHELCDLISQNPDKVQSLNVDAIIRGGLTRFTDQLGKLWCSLADYYIRSGHFEKARDVYEEAIRTVMTVRDFTQVFDSYAQFEESMIAAKMETASELGREEEDDVDLELRLARFEQLISRRPLLLNSVLLRQNPHHVHEWHKRVALHQGRPREIINTYTEAVQTVDPFKATGKPHTLWVAFAKFYEDNGQLDDARVILEKATKVNFKQVDDLASVWCQCGELELRHENYDEALRLLRKATALPARRAEYFDGSEPVQNRVYKSLKVWSMLADLEESLGTFQSTKAVYDRILDLRIATPQIVINYAMFLEEHKYFEESFKAYERGISLFKWPNVSDIWSTYLTKFIARYGGRKLERARDLFEQALDGCPPKYAKTLYLLYAQLEEEWGLARHAMAVYERATRAVEPAQQYDMFNIYIKRAAEIYGVTHTRGIYQKAIEVLSDEHAREMCLRFADMECKLGEIDRARAIYSFCSQICDPRTTGAFWQTWKDFEVRHGNEDTIKEMLRIRRSVQATYNTQVNFMASQMLKVSGSATGTVSDLAPGQSGMDDMKLLEQRAEQLAAEAERDQPLRAQSKILFVRSDASREELAELAQQVNPEEIQLGEDEDEDEMDLEPNEVRLEQQSVPAAVFGSLKED
binds: Flag-HDAC3 [1] | Flag-HDAC3 [2] | Flag-HDAC4 [3] | Flag-HDAC6 [4] | Flag-HDAC6 [5] | Flag-HDAC1 [6] | Flag-Skip fused protein [7] | Flag-HDAC1 [8] | Flag-HDAC4 [9]

B2: GST-HDART fused protein (protein, not shown: a dimerising Fc or GST)
chain: MVVMARLSRPERPDLVFEEEDLPYEEEIMRNQFSVKCWLRYIEFKQGAPKPRLNQLYERALKLLPCSYKLWYRYLKARRAQVKHRCVTDPAYEDVNNCHERAFVFMHKMPRLWLDYCQFLMDQGRVTHTRRTFDRALRALPITQHSRIWPLYLRFLRSHPLPETAVRGYRRFLKLSPESAEEYIEYLKSSDRLDEAAQRLATVVNDERFVSKAGKSNYQLWHELCDLISQNPDKVQSLNVDAIIRGGLTRFTDQLGKLWCSLADYYIRSGHFEKARDVYEEAIRTVMTVRDFTQVFDSYAQFEESMIAAKMETASELGREEEDDVDLELRLARFEQLISRRPLLLNSVLLRQNPHHVHEWHKRVALHQGRPREIINTYTEAVQTVDPFKATGKPHTLWVAFAKFYEDNGQLDDARVILEKATKVNFKQVDDLASVWCQCGELELRHENYDEALRLLRKATALPARRAEYFDGSEPVQNRVYKSLKVWSMLADLEESLGTFQSTKAVYDRILDLRIATPQIVINYAMFLEEHKYFEESFKAYERGISLFKWPNVSDIWSTYLTKFIARYGGRKLERARDLFEQALDGCPPKYAKTLYLLYAQLEEEWGLARHAMAVYERATRAVEPAQQYDMFNIYIKRAAEIYGVTHTRGIYQKAIEVLSDEHAREMCLRFADMECKLGEIDRARAIYSFCSQICDPRTTGAFWQTWKDFEVRHGNEDTIKEMLRIRRSVQATYNTQVNFMASQMLKVSGSATGTVSDLAPGQSGMDDMKLLEQRAEQLAAEAERDQPLRAQSKILFVRSDASREELAELAQQVNPEEIQLGEDEDEDEMDLEPNEVRLEQQSVPAAVFGSLKED
binds: [10] | [11] | [12]

B3: endogenous HDART protein (protein)
chain: MVVMARLSRPERPDLVFEEEDLPYEEEIMRNQFSVKCWLRYIEFKQGAPKPRLNQLYERALKLLPCSYKLWYRYLKARRAQVKHRCVTDPAYEDVNNCHERAFVFMHKMPRLWLDYCQFLMDQGRVTHTRRTFDRALRALPITQHSRIWPLYLRFLRSHPLPETAVRGYRRFLKLSPESAEEYIEYLKSSDRLDEAAQRLATVVNDERFVSKAGKSNYQLWHELCDLISQNPDKVQSLNVDAIIRGGLTRFTDQLGKLWCSLADYYIRSGHFEKARDVYEEAIRTVMTVRDFTQVFDSYAQFEESMIAAKMETASELGREEEDDVDLELRLARFEQLISRRPLLLNSVLLRQNPHHVHEWHKRVALHQGRPREIINTYTEAVQTVDPFKATGKPHTLWVAFAKFYEDNGQLDDARVILEKATKVNFKQVDDLASVWCQCGELELRHENYDEALRLLRKATALPARRAEYFDGSEPVQNRVYKSLKVWSMLADLEESLGTFQSTKAVYDRILDLRIATPQIVINYAMFLEEHKYFEESFKAYERGISLFKWPNVSDIWSTYLTKFIARYGGRKLERARDLFEQALDGCPPKYAKTLYLLYAQLEEEWGLARHAMAVYERATRAVEPAQQYDMFNIYIKRAAEIYGVTHTRGIYQKAIEVLSDEHAREMCLRFADMECKLGEIDRARAIYSFCSQICDPRTTGAFWQTWKDFEVRHGNEDTIKEMLRIRRSVQATYNTQVNFMASQMLKVSGSATGTVSDLAPGQSGMDDMKLLEQRAEQLAAEAERDQPLRAQSKILFVRSDASREELAELAQQVNPEEIQLGEDEDEDEMDLEPNEVRLEQQSVPAAVFGSLKED
binds: Flag-Skip fused protein [13]

B4: GFP-N4TPR (N4TPR tagged with GFP) (protein, not shown: large carriers; small tags and cut ends)
chain: MVVMARLSRPERPDLVFEEEDLPYEEEIMRNQFSVKCWLRYIEFKQGAPKPRLNQLYERALKLLPCSYKLWYRYLKARRAQVKHRCVTDPAYEDVNNCHERAFVFMHKMPRLWLDYCQFLMDQGRVTHTRRTFDRALRALPITQHSRIWPLYLRFLRSHPLPETAVRGYRRFLKLSPES
binds: Flag-Skip fused protein [14]
